In article PMC5346709:
Results are given in words; binding and its absence hold for the method and conditions named. Binding seen in cells or lysates may run through a third protein. Some results given as binding are weak or reduced against the parent protein; the word gives no strength. Sequences can lack the tags named with a protein.

Chains of the proteins cited; added tags and fusions are not shown.
UniProt Q15059: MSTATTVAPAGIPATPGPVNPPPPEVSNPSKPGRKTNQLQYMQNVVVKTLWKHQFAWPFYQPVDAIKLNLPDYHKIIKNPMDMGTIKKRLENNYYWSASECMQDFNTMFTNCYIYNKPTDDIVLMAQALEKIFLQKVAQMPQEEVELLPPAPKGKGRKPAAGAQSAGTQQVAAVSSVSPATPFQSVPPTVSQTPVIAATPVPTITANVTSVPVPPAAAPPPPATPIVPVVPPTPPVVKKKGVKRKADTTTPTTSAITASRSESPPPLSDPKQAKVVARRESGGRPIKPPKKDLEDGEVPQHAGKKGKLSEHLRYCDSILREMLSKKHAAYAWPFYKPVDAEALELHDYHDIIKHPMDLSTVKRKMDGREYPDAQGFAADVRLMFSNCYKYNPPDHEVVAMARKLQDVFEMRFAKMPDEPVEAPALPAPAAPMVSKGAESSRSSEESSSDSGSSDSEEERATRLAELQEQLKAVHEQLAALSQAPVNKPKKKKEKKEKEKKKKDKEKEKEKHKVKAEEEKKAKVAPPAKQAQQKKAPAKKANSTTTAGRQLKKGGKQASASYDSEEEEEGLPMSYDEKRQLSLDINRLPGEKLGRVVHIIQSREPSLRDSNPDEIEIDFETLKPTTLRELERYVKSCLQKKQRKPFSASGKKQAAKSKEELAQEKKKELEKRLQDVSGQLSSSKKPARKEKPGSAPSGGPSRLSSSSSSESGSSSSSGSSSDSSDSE

Target: BRD3 (pJTI-R4-DEST-CMV-N-EmGFP BRD3 construct) (UniProt Q15059)
Assay: co-IP; HEK293 cells co-transfected with FLAG-Nrf2 and BRD3, BRD4 or empty vector for 48 hours; 1500 ug of lysate protein immunoprecipitated with 5 ug anti-BRD3 or anti-BRD4 antibody (or control IgG) overnight at 4°C, captured on Protein G-Sepharose; immunoblot with anti-BRD3, anti-BRD4 and …

B1: Nrf2 (pcDNA3.1-FLAG Nrf2 construct) (protein, UniProt Q16236 1-605)
chain: MMDLELPPPGLPSQQDMDLIDILWRQDIDLGVSREVFDFSQRRKEYELEKQKKLEKERQEQLQKEQEKAFFAQLQLDEETGEFLPIQPAQHIQSETSGSANYSQVAHIPKSDALYFDDCMQLLAQTFPFVDDNEVSSATFQSLVPDIPGHIESPVFIATNQAQSPETSVAQVAPVDLDGMQQDIEQVWEELLSIPELQCLNIENDKLVETTMVPSPEAKLTEVDNYHFYSSIPSMEKEVGNCSPHFLNAFEDSFSSILSTEDPNQLTVNSLNSDATVNTDFGDEFYSAFIAEPSISNSMPSPATLSHSLSELLNGPIDVSDLSLCKAFNQNHPESTAEFNDSDSGISLNTSPSVASPEHSVESSSYGDTLLGLSDSEVEELDSAPGSVKQNGPKTPVHSSGDMVQPLSPSQGQSTHVHDAQCENTPEKELPVSPGHRKTPFTKDKHSSRLEAHLTRDELRAKALHIPFPVEKIINLPVVDFNEMMSKEQFNEAQLALIRDIRRRGKNKVAAQNCRKRKLENIVELEQDLDHLKDEKEKLLKEKGENDKSLHLLKKQLSTLYLEVFSMLRDEDGKPYSPSEYSLQQTRDGNVFLVPKSKKPDVKKN
binding: binds
